Experimental data published in article doi:10.1101/659573v1 (bioRxiv, 2019).

System: 8% mucin
Experiment: Phage screening assay through mucin, sequencing of clones
Conditions: after three rounds of screening against 8% mucin; DNA sequencing of 13 clones

Row | Substance | frequency among sequenced clones
1 | NTGSPYE | 1/13
2 | TVRTSAD | 4/13
